PubChem BioAssay AID1508597 | Cure First, 2020

Screen: 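Survival screen with siRNA in ovarian cancer cells derived from patients, with or without rucaparib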 (primary screen)
System: human ovarian carcinoma lines grown from tumours: OCI-P5x (papillary serous) and OCI-C5x (clear cell)
Reagent: siRNA pool against human genes, 1.25 pmol siRNA per well
Duration: 72 h or 96 h, depending on the cell culture
Challenge: rucaparib 20 µM (about IC30) or vehicle, present until read-out
Detection: 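ATP luminescence measured at 72 or 96 h according to the culture, then normalised and expressed as percent viability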
Reading the numbers: viability, normalised: higher = more viable cells remaining
Hit rule: 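Active when normalised viability falls below 80 percent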
Calls: active = viability under 80%; inactive = viability 80% or more
In all, the deposit lists about 2,100 reagents; shown is an unselected part. 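Calls flag viability under 80% in either arm, not effects specific to rucaparib; the reference for percent is not stated.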 The record does not give: the 100% reference.

TCF7L1 (GeneID 83439), rucaparib or vehicle Rucaparib, cell line OCI-C5x (clear cell), technical replicate 1
- viability, normalised (%): 65.2
- Outcome: active

TCF7L1 (GeneID 83439), rucaparib or vehicle Rucaparib, cell line OCI-C5x (clear cell), technical replicate 2
- viability, normalised (%): 54
- Outcome: active

TCF7L1 (GeneID 83439), rucaparib or vehicle Rucaparib, cell line OCI-C5x (clear cell), technical replicate 3
- viability, normalised (%): 42.2
- Outcome: active

TCF7L1 (GeneID 83439), rucaparib or vehicle Rucaparib, cell line OCI-P5x (serous), technical replicate 1
- viability, normalised (%): 69.1
- Outcome: active

TCF7L1 (GeneID 83439), rucaparib or vehicle Rucaparib, cell line OCI-P5x (serous), technical replicate 2
- viability, normalised (%): 70.8
- Outcome: active

TCF7L1 (GeneID 83439), rucaparib or vehicle Rucaparib, cell line OCI-P5x (serous), technical replicate 3
- viability, normalised (%): 57.8
- Outcome: active

TCF7L1 (GeneID 83439), rucaparib or vehicle Vehicle, cell line OCI-C5x (clear cell), technical replicate 1
- viability, normalised (%): 82.9
- Outcome: inactive

TCF7L1 (GeneID 83439), rucaparib or vehicle Vehicle, cell line OCI-C5x (clear cell), technical replicate 2
- viability, normalised (%): 43.1
- Outcome: active

TCF7L1 (GeneID 83439), rucaparib or vehicle Vehicle, cell line OCI-C5x (clear cell), technical replicate 3
- viability, normalised (%): 48.4
- Outcome: active

TCF7L1 (GeneID 83439), rucaparib or vehicle Vehicle, cell line OCI-P5x (serous), technical replicate 1
- viability, normalised (%): 72.6
- Outcome: active

TCF7L1 (GeneID 83439), rucaparib or vehicle Vehicle, cell line OCI-P5x (serous), technical replicate 2
- viability, normalised (%): 56.4
- Outcome: active

TCF7L1 (GeneID 83439), rucaparib or vehicle Vehicle, cell line OCI-P5x (serous), technical replicate 3
- viability, normalised (%): 81.6
- Outcome: inactive

KLF6 (GeneID 1316), rucaparib or vehicle Rucaparib, cell line OCI-C5x (clear cell), technical replicate 1
- viability, normalised (%): 56.7
- Outcome: active

KLF6 (GeneID 1316), rucaparib or vehicle Rucaparib, cell line OCI-C5x (clear cell), technical replicate 2
- viability, normalised (%): 46.7
- Outcome: active

KLF6 (GeneID 1316), rucaparib or vehicle Rucaparib, cell line OCI-C5x (clear cell), technical replicate 3
- viability, normalised (%): 40.7
- Outcome: active

KLF6 (GeneID 1316), rucaparib or vehicle Rucaparib, cell line OCI-P5x (serous), technical replicate 1
- viability, normalised (%): 78.1
- Outcome: active

KLF6 (GeneID 1316), rucaparib or vehicle Rucaparib, cell line OCI-P5x (serous), technical replicate 2
- viability, normalised (%): 58.7
- Outcome: active

KLF6 (GeneID 1316), rucaparib or vehicle Rucaparib, cell line OCI-P5x (serous), technical replicate 3
- viability, normalised (%): 75.2
- Outcome: active

KLF6 (GeneID 1316), rucaparib or vehicle Vehicle, cell line OCI-C5x (clear cell), technical replicate 1
- viability, normalised (%): 47.2
- Outcome: active

KLF6 (GeneID 1316), rucaparib or vehicle Vehicle, cell line OCI-C5x (clear cell), technical replicate 2
- viability, normalised (%): 51.2
- Outcome: active

KLF6 (GeneID 1316), rucaparib or vehicle Vehicle, cell line OCI-C5x (clear cell), technical replicate 3
- viability, normalised (%): 58.3
- Outcome: active

KLF6 (GeneID 1316), rucaparib or vehicle Vehicle, cell line OCI-P5x (serous), technical replicate 1
- viability, normalised (%): 58.7
- Outcome: active

KLF6 (GeneID 1316), rucaparib or vehicle Vehicle, cell line OCI-P5x (serous), technical replicate 2
- viability, normalised (%): 85
- Outcome: inactive

KLF6 (GeneID 1316), rucaparib or vehicle Vehicle, cell line OCI-P5x (serous), technical replicate 3
- viability, normalised (%): 80.6
- Outcome: inactive

PRKD3 (GeneID 23683), rucaparib or vehicle Rucaparib, cell line OCI-C5x (clear cell), technical replicate 1
- viability, normalised (%): 63.7
- Outcome: active

PRKD3 (GeneID 23683), rucaparib or vehicle Rucaparib, cell line OCI-C5x (clear cell), technical replicate 2
- viability, normalised (%): 66.6
- Outcome: active

PRKD3 (GeneID 23683), rucaparib or vehicle Rucaparib, cell line OCI-C5x (clear cell), technical replicate 3
- viability, normalised (%): 63.7
- Outcome: active

PRKD3 (GeneID 23683), rucaparib or vehicle Rucaparib, cell line OCI-P5x (serous), technical replicate 1
- viability, normalised (%): 65.4
- Outcome: active

PRKD3 (GeneID 23683), rucaparib or vehicle Rucaparib, cell line OCI-P5x (serous), technical replicate 2
- viability, normalised (%): 55
- Outcome: active

PRKD3 (GeneID 23683), rucaparib or vehicle Rucaparib, cell line OCI-P5x (serous), technical replicate 3
- viability, normalised (%): 83.1
- Outcome: inactive

PRKD3 (GeneID 23683), rucaparib or vehicle Vehicle, cell line OCI-C5x (clear cell), technical replicate 1
- viability, normalised (%): 68
- Outcome: active

PRKD3 (GeneID 23683), rucaparib or vehicle Vehicle, cell line OCI-C5x (clear cell), technical replicate 2
- viability, normalised (%): 64.6
- Outcome: active

PRKD3 (GeneID 23683), rucaparib or vehicle Vehicle, cell line OCI-C5x (clear cell), technical replicate 3
- viability, normalised (%): 83.7
- Outcome: inactive

PRKD3 (GeneID 23683), rucaparib or vehicle Vehicle, cell line OCI-P5x (serous), technical replicate 1
- viability, normalised (%): 97.1
- Outcome: inactive

PRKD3 (GeneID 23683), rucaparib or vehicle Vehicle, cell line OCI-P5x (serous), technical replicate 2
- viability, normalised (%): 93.2
- Outcome: inactive

PRKD3 (GeneID 23683), rucaparib or vehicle Vehicle, cell line OCI-P5x (serous), technical replicate 3
- viability, normalised (%): 61.9
- Outcome: active

STING1 (GeneID 340061), rucaparib or vehicle Rucaparib, cell line OCI-C5x (clear cell), technical replicate 1
- viability, normalised (%): 58
- Outcome: active

STING1 (GeneID 340061), rucaparib or vehicle Rucaparib, cell line OCI-C5x (clear cell), technical replicate 2
- viability, normalised (%): 43.1
- Outcome: active

STING1 (GeneID 340061), rucaparib or vehicle Rucaparib, cell line OCI-C5x (clear cell), technical replicate 3
- viability, normalised (%): 38.2
- Outcome: active

STING1 (GeneID 340061), rucaparib or vehicle Rucaparib, cell line OCI-P5x (serous), technical replicate 1
- viability, normalised (%): 46.4
- Outcome: active

STING1 (GeneID 340061), rucaparib or vehicle Rucaparib, cell line OCI-P5x (serous), technical replicate 2
- viability, normalised (%): 46.8
- Outcome: active

STING1 (GeneID 340061), rucaparib or vehicle Rucaparib, cell line OCI-P5x (serous), technical replicate 3
- viability, normalised (%): 49.6
- Outcome: active

STING1 (GeneID 340061), rucaparib or vehicle Vehicle, cell line OCI-C5x (clear cell), technical replicate 1
- viability, normalised (%): 55.4
- Outcome: active

STING1 (GeneID 340061), rucaparib or vehicle Vehicle, cell line OCI-C5x (clear cell), technical replicate 2
- viability, normalised (%): 46.3
- Outcome: active

STING1 (GeneID 340061), rucaparib or vehicle Vehicle, cell line OCI-C5x (clear cell), technical replicate 3
- viability, normalised (%): 53.9
- Outcome: active

STING1 (GeneID 340061), rucaparib or vehicle Vehicle, cell line OCI-P5x (serous), technical replicate 1
- viability, normalised (%): 67.1
- Outcome: active

STING1 (GeneID 340061), rucaparib or vehicle Vehicle, cell line OCI-P5x (serous), technical replicate 2
- viability, normalised (%): 61.2
- Outcome: active

STING1 (GeneID 340061), rucaparib or vehicle Vehicle, cell line OCI-P5x (serous), technical replicate 3
- viability, normalised (%): 54.8
- Outcome: active

Taken from above.
For “Outcome”, STING1 (GeneID 340061), rucaparib or vehicle Vehicle, cell line OCI-P5x (serous), technical replicate 2 reads active
Entry for PRKD3 (GeneID 23683), rucaparib or vehicle Rucaparib, cell line OCI-P5x (serous), technical replicate 2 under “Outcome”: active
